For four molecules, binding results are on record in article doi:10.1101/2024.07.01.601633.

Chains of the proteins cited; added tags and fusions are not shown. Lines headed by an entry give the natural chain unless they say otherwise; changes in a name come on top. Residues count along the entry.
UniProt P14314, residues 15-528: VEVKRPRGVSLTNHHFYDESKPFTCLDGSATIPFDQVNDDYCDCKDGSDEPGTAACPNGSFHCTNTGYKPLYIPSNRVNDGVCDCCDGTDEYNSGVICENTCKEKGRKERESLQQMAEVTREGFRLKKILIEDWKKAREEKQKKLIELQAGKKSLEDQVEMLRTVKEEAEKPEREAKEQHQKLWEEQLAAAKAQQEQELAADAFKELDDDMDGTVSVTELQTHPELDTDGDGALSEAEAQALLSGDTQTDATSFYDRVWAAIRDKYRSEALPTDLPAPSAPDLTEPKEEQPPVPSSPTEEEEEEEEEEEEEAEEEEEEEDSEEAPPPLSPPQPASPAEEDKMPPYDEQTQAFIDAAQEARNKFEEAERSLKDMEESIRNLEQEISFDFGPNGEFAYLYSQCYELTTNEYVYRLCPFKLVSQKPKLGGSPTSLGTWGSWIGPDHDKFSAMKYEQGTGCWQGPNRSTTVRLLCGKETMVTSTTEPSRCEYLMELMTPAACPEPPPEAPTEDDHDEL
UniProt Q14571: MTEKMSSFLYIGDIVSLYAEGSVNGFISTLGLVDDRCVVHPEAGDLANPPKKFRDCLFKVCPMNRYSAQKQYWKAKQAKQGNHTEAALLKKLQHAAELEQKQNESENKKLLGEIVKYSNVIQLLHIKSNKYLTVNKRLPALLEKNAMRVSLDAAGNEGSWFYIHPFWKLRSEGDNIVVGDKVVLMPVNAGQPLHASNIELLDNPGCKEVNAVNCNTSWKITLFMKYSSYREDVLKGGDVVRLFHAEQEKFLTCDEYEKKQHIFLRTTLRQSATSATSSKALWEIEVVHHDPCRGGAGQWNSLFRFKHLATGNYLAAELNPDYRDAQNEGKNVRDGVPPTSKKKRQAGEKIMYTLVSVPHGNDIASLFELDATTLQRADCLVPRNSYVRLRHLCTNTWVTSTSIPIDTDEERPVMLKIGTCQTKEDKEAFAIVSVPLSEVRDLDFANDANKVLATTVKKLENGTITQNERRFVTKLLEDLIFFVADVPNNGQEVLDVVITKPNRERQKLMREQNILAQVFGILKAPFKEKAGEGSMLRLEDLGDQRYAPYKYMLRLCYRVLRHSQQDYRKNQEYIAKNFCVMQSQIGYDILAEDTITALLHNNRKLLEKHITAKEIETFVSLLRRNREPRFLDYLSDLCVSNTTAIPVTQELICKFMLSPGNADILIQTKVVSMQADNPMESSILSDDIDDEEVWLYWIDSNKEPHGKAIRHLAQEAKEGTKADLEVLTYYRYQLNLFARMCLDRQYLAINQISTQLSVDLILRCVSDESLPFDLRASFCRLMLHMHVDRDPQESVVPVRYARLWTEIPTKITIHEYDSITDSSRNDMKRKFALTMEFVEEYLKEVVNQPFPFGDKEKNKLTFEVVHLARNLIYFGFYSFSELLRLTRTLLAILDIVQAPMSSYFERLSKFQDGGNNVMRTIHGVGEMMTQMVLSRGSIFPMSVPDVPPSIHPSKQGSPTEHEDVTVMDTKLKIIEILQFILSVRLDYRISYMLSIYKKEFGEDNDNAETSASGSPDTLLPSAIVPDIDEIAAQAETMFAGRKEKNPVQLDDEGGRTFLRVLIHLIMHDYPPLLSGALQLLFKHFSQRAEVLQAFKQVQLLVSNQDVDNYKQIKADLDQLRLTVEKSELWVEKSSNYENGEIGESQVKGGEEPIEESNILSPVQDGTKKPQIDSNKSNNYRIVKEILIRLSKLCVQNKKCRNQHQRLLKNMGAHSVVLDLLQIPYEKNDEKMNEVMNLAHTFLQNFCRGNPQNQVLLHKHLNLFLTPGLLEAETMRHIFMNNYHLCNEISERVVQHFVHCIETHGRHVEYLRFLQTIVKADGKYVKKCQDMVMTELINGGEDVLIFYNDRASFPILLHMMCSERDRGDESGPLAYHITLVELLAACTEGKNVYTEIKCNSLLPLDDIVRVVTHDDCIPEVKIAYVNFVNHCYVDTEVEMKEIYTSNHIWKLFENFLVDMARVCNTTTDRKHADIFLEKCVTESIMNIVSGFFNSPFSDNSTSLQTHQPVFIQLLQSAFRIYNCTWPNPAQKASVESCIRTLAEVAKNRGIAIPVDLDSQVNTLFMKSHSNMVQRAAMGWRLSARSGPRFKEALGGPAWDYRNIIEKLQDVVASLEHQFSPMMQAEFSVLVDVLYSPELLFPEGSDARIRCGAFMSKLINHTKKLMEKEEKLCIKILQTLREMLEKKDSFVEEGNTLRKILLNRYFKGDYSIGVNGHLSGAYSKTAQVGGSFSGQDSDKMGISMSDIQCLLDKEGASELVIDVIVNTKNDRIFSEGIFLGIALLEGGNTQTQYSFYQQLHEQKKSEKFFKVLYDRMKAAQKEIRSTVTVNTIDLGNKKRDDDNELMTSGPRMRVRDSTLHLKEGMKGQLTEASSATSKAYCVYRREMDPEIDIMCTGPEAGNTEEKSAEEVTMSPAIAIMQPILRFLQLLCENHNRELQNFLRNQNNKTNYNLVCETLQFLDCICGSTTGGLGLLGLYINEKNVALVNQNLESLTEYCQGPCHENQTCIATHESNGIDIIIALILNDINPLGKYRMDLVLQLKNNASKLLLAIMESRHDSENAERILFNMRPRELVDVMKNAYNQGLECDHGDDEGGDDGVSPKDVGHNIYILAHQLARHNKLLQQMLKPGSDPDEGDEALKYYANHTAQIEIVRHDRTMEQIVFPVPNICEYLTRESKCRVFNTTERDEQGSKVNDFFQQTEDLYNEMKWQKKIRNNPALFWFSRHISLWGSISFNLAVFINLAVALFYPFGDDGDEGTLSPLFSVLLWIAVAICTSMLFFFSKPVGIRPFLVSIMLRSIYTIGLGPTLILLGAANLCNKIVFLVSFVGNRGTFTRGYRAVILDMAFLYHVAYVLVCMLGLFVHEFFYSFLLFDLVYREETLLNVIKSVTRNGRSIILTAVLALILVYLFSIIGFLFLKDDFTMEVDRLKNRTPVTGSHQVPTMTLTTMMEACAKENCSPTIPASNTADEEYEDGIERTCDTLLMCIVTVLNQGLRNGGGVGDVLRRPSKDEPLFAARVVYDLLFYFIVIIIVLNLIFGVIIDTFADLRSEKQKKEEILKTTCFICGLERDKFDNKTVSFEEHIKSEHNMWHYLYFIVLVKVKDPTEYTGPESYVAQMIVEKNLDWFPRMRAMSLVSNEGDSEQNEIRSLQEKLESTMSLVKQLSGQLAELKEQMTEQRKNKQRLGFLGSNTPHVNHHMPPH
UniProt Q14573: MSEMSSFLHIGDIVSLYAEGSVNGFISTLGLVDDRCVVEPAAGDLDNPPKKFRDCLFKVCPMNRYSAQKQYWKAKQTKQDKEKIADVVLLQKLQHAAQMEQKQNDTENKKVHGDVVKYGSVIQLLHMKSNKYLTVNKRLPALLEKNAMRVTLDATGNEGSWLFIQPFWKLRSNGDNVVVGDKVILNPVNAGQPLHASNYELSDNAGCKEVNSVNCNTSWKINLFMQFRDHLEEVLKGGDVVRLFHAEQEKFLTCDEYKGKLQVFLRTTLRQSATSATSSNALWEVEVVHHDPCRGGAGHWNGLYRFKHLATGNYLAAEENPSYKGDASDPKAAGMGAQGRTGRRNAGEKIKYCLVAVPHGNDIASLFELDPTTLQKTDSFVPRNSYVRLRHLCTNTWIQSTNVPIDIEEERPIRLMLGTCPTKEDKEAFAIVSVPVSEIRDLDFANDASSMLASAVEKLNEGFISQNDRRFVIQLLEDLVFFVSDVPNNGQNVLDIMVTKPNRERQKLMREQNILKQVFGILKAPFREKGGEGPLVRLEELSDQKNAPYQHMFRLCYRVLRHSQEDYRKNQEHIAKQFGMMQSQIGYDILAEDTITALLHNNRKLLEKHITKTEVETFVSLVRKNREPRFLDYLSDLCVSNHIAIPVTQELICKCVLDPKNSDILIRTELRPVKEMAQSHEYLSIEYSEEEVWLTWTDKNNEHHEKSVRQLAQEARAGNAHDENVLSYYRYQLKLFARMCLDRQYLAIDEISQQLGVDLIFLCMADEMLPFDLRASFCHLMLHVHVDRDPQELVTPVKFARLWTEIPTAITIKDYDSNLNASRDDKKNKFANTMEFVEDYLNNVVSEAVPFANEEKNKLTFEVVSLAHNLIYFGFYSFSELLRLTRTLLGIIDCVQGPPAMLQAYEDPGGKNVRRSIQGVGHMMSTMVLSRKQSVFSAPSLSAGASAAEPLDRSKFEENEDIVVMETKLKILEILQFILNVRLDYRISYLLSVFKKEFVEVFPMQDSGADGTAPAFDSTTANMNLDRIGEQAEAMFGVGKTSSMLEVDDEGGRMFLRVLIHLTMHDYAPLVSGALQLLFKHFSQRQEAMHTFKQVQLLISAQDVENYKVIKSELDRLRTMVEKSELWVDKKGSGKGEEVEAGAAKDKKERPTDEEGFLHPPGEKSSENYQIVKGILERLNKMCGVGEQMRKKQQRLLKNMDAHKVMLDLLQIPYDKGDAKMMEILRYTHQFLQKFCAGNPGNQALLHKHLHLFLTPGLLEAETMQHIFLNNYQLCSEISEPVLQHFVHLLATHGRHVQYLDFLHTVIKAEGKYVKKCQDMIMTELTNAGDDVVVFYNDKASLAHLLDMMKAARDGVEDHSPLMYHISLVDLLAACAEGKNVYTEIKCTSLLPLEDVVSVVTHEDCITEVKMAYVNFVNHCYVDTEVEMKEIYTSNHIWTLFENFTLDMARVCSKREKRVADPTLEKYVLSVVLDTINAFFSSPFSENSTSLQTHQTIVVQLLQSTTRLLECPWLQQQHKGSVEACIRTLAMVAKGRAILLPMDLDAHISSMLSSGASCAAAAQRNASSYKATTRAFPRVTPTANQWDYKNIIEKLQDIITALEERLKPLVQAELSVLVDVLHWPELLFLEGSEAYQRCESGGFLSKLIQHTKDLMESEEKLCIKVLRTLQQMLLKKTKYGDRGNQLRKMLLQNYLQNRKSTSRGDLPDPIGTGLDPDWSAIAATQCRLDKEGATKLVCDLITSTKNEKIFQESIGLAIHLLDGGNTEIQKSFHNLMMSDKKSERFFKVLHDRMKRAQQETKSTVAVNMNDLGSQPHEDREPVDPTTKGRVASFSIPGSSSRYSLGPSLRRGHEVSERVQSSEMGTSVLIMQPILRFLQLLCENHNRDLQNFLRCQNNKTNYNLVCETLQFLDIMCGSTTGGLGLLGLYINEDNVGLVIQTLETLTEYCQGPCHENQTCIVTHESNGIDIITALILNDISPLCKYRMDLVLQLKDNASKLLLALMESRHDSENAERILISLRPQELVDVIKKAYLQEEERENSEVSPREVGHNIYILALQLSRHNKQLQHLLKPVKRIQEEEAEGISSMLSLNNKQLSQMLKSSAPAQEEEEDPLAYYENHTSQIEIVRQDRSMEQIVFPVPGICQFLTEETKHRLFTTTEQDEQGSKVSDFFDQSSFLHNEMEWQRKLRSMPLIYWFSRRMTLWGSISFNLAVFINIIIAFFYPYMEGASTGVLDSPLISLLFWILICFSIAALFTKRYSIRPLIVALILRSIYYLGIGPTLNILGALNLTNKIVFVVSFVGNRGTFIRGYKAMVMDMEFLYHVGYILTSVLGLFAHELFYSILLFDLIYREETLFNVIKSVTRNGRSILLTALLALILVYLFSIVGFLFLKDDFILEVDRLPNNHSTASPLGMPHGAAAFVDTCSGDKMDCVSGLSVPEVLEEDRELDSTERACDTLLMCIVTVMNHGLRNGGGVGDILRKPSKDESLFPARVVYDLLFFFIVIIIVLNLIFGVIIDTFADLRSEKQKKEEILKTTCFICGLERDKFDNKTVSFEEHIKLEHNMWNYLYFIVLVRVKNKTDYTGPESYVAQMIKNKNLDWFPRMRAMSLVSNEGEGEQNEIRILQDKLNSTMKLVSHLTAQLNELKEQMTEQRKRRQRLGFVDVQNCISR

Results are given in words; binding and its absence hold for the method and conditions named. Binding seen in cells or lysates may run through a third protein. For some assays here: A result given as binding can be weak or reduced; the word gives no strength.

Among the targets are PRKCSH (UniProt P14314); Endophilin; IP3R2 C-terminus (UniProt Q14571); IP3R3 C-terminus (UniProt Q14573).
Common to all, as to assay: co-IP
The target of experiment [1] is IP3R1 C-terminus (a.a. 2535–2695).
In experiment [2] the target is IP3R1 N-terminus (a.a. 1–600).

On to “myoclonin1 DM10 domain (first of the three) (from UniProt Q5JVL4) (domain or fragment)”, for which, in the experiment with PRKCSH, the binding entry is on record as “binds”.

With “myoclonin1 DM10 domain (second of the three) (from UniProt Q5JVL4) (domain or fragment)”, the binding result with PRKCSH is on record as “binds”.

Regarding “myoclonin1 DM10 domain (third of the three) (from UniProt Q5JVL4) (domain or fragment)”, in the experiment with PRKCSH, the binding result is given as “binds”.

B1: myoclonin1 (protein, UniProt Q5JVL4 1-640)
chain: MVSNPVHGLPFLPGTSFKDSTKTAFHRSQTLSYRNGYAIVRRPTVGIGGDRLQFNQLSQAELDELASKAPVLTYGQPKQAPPADFIPAHVAFDKKVLKFDAYFQEDVPMSTEEQYRIRQVNIYYYLEDDSMSVIEPVVENSGILQGKLIKRQRLAKNDRGDHYHWKDLNRGINITIYGKTFRVVDCDQFTQVFLESQGIELNPPEKMALDPYTELRKQPLRKYVTPSDFDQLKQFLTFDKQVLRFYAIWDDTDSMYGECRTYIIHYYLMDDTVEIREVHERNDGRDPFPLLMNRQRVPKVLVENAKNFPQCVLEISDQEVLEWYTAKDFIVGKSLTILGRTFFIYDCDPFTRRYYKEKFGITDLPRIDVSKREPPPVKQELPPYNGFGLVEDSAQNCFALIPKAPKKDVIKMLVNDNKVLRYLAVLESPIPEDKDRRFVFSYFLATDMISIFEPPVRNSGIIGGKYLGRTKVVKPYSTVDNPVYYGPSDFFIGAVIEVFGHRFIILDTDEYVLKYMESNAAQYSPEALASIQNHVRKREAPAPEAESKQTEKDPGVQELEALIDTIQKQLKDHSCKDNIREAFQIYDKEASGYVDRDMFFKICESLNVPVDDSLVKELIRMCSHGEGKINYYNFVRAFSN
For the molecule B1, the binding result in the experiment with Endophilin was “no binding”; in experiment [1], “binds”; in experiment [2], “no binding”; with IP3R2 C-terminus, “binds”; with IP3R3 C-terminus, “binds”.
